One molecule from paper PMC6995573 can be followed below.

Results are given in words; binding and its absence hold for the method and conditions named. Some entries that bind do so weakly or less than the wild type.

This experiment deals with Human ornithine decarboxylase (human) (UniProt P11926). In words: AUC; sedimentation velocity, 20 °C, 30 mM Tris-HCl pH 7.4, 25 mM NaCl; ODC fixed at 0.3 mg/mL, AZ 0.02-0.19 mg/mL (AZ/ODC molar ratio 0.25 to 3); all data sets fitted to the AB hetero-association model in SEDPHAT; both purified.

B1: Human ornithine decarboxylase (enzyme, UniProt P11926 2-421)
chain: NNFGNEEFDCHFLDEGFTAKDILDQKINEVSSSDDKDAFYVADLGDILKKHLRWLKALPRVTPFYAVKCNDSKAIVKTLAATGTGFDCASKTEIQLVQSLGVPPERIIYANPCKQVSQIKYAANNGVQMMTFDSEVELMKVARAHPKAKLVLRIATDDSKAVCRLSVKFGATLRTSRLLLERAKELNIDVVGVSFHVGSGCTDPETFVQAISDARCVFDMGAEVGFSMYLLDIGGGFPGSEDVKLKFEEITGVINPALDKYFPSDSGVRIIAEPGRYYVASAFTLAVNIIAKKIVLKEQTGSDDEDESSEQTFMYYVNDGVYGSFNCILYDHAHVKPLLQKRPKPDEKYYSSSIWGPTCDGLDRIVERCDLPEMHVGDWMLFENMGAYTVAAASTFNGFQRPTIYYVMSGPAWQLMQQFQ
Turning to B1, the binding result is “binds”.
